Measurements from patent US20220144940A1.
No constants are given. Whether binding was seen depends on the method and setting. Some results given as binding are weak or reduced against the parent protein; the word gives no strength.

The chains behind the UniProt entries cited, without tags or fusion partners. Where a name states a change or a piece, a line headed by the entry shows the natural chain unless it says otherwise. A line that says so, or that is headed by a name, gives the form on record, which may keep a tag or linker. Residues count along the entry.
UniProt P59901: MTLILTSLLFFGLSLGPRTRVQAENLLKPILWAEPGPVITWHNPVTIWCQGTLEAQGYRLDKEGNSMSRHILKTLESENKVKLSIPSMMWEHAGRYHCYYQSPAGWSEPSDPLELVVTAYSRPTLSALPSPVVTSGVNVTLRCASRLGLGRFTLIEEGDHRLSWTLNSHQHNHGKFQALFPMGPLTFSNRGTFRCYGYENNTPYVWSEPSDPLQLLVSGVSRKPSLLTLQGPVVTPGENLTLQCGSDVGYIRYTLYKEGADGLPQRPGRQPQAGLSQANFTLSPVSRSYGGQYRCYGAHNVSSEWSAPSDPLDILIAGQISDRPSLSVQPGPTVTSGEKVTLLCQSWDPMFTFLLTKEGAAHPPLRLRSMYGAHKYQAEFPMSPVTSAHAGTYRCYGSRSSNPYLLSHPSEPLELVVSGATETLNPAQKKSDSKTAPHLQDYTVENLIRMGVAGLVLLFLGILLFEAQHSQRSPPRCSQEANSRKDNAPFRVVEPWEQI
HA-tagged human ILT7 on CT-550 cells: residues 24-499 of P59901

What was measured:
human ILT7 (human) [1] = molecular target: human ILT7 (human) (UniProt P59901); test: FMAT cell binding assay, CHO-K1 cells expressing human ILT7, IgG
[2] = molecular target: cynomolgus ILT7 (cynomolgus); test: flow cytometry on CynoILT7 CT-125 cells (sentence prints 'human ILT7')
[3] = molecular target: cynomolgus ILT7 (cynomolgus); test: FMAT cell binding assay, CHO-K1 cells expressing cynomolgus ILT7, IgG
[4] = molecular target: cynomolgus ILT7 (cynomolgus); test: flow cytometry on CynoILT7 CT-125 cells
[5] = molecular target: HA-tagged human ILT7 on CT-550 cells (human) (UniProt P59901); test: flow cytometry on CT-550 cells
human ILT7 (human) [6] = molecular target: human ILT7 (human) (UniProt P59901); test: SPR on ProteOn; reference antibody of the comparison

Measured: binding

B1: ILT70142 (antibody, V domains shown)
VH: QVQLVQSGAEVKKPGASVKVSCKASGYTFTSYGISWVRQAPGQGLEWMGWISAYNGNTNYAQKLQGRVTMTRDTSISTAYMELSRLRSDDTAVYYCARNGLWGWDSDAFDIWGQGTTVTVSS
VL: QSVLTQPPSVSAAPGQKVTISCSGSSSNIGNNYVSWYQQLPGTAPKLLIYDNNKRPSGIPDRFSGSKSGTSATLGITGLQTGDEADYYCGTWDSSLSAGVFGTGTQLTVL
not listed: human ILT7 (human) [6]
binds: all other assays above

B2: ILT70144 (antibody, V domains shown)
VH: B1 VH
VL: B1 VL
binds: human ILT7 (human) [1] | [3] | [4] | [5]

B3: SBI28ch (antibody, V domains shown)
VH: QVQLQQSGAELVKPGASVKMSCKAFGYTFTTYPIEWMKQNHGKSLEWIGNFHPYNDDTKYNEKFKGKAKLTVEKSSSTVYLELSRLTSDDSAVYYCARGDDYGMDYWGQGTSVTVSS
VL: DIVMTQSQKFMSTSVGDRVSITCKASQNVRTAVAWYQQKPGQSPKALIYLASNRHTGVPDRFTGSGSGTDFTLTISNVQSEDLADYFCLQHWNYPFTFGSGTKLEIK
binds: human ILT7 (human) [6]
